Results from PubChem BioAssay AID2685 (National Center for Advancing Translational Sciences (NCATS), 2010).
About 2,100 (0.66%) of roughly 320,000 compounds were called active. The call rests on the fitted dose curve; in most records, active means well fitted inhibition curve with a large enough effect in the signal ratio, with a control signal flat (not every such curve was filed as active); inconclusive means small, poorly fitted or top-dose-only effect, or effect the other way, or a change in a side signal; inactive means flat fitted curve, though single readings scatter; the % refers to the signal ratio. Inconclusive means that the source gave no clear call.

Test: qHTS Assay for Lipid Storage Modulators in Drosophila S3 Cells
Details: BODIPY lipid droplet fluorescence, 18-24 h, cells fed with added oleic acid; lipid storage change, negative = inhibition: at 46.1 µM (top of the series) unless noted
In short: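 Laser-scanning cytometry quantifies lipid droplet accumulation (500–530 nm total intensity; droplet/cell object ratio) in oleic acid-fed (400 uM added) Drosophila S3 cells treated with a concentration series. 20 uM Triacsin C defined 100% inhibition.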
On the % scale 0 is the no-effect control and ±100 the full control effect.

Row | Structure (SMILES) | lipid storage change, negative = inhibition
1 | COc1cc(/C=N/Nc2ccc(Cl)c(C(=O)O)c2)ccc1OC(=O)c1ccc(F)cc1 | inconclusive: 29.4%
